Our source for the IC50 values is article PMC8584931 (International Journal of Molecular Sciences, 2021).

The experiment concerns HT-29 cells. Description: cells. Conditions: Homo sapiens, HT-29, 48 h, read-out: HT-29 IV (intermediate value). How it is done: Cell viability was evaluated by MTT assay.
It is necessary for this IV to have a method of comparison for the combination of experiments.
Human colorectal cancer HT-29 and prostate cancer PC-3 cell lines were obtained from the American Type Culture Collection (ATCC; Manassas, VA, USA) and maintained according to ATCC’s recommendations at 37 °C and 5% CO2 in appropriate medium supplemented with 10% foetal bovine serum, 100 U/mL penicillin G and 100 µg/mL streptomycin. Cells were maintained in the logarithmic growth phase at all times. The media were changed every 2 days and trypsinised with 0.25% trypsin–EDTA. A total of 100 µL of HT-29 cells (7500 cells/well) or PC-3 cells (5000 cells/well) were seeded in 96-well plates and allowed to adhere overnight before drug exposure. After 24 h, the cell culture media were replaced with 100 µL of drug-containing media. […]
The IV value was first determined for each drug alone in HT-29 and PC-3 cells. […] Both Drug A and Drug B concentrations were variable, and the combined effects of equipotent concentrations (fixed ratio) of the IV values for each drug were evaluated.
For the MTT protocol, after drug treatment, the cell medium was removed and 100 µL/well of MTT solution (0.5 mg/mL in PBS) was added. […] Absorbance was measured at 570 nm in an automated microplate reader (Tecan Infinite M200, Tecan Group Ltd., Männedorf, Switzerland). […]

Structures are written as SMILES.

Turning to `Clc1ccccc1C(c1ccccc1)(c1ccccc1)n1ccnc1` [Clotrimazole, clotrimazole], the IC50 stood at 21.6 µM.
